Reference: the supplement of paper PMC6078165
Values are relative to the signal before dosing, not to a vehicle control; the signal also falls without drug.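 Fibroblast labels name human fibroblasts: mostly primary ones from tissues such as uterus (C12385, HUF), lung (H6013), bone (Hs27A), adrenal (HADF) and skin (WS1), plus mammary HMF and breast cancer-associated Hs343T. The cancer cells are basal-like or mesenchymal-like triple-negative breast cancer lines. The paper calls a changed response a hit when it shifts by more than 3x the replicate standard deviation. The tissue of the other fibroblasts is not given here.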

System: HCC1143
Experiment: relative JC-1 red fluorescence (viability) vs pre-drug, coculture with fibroblast (fraction); higher = more viable cancer cells
Method: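 JC-1 labelled TNBC cells cocultured 1:1 (1,500 cells each) with CellTrace Violet stained primary or stromal fibroblasts in 384-well plates in FluoroBrite medium, treated with one of 42 anticancer drugs at 0.1, 1, 10 or 100 uM. JC-1 red fluorescence (mitochondrial integrity in cancer cells only) was read by plate reader every 8 h for 72 h. Values are normalised to each well's pre-drug value. The stock of one drug was tenfold lower, so its dose labels may be too high.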

O=c1[nH]cc(F)c(=O)[nH]1 [Fluorouracil]
relative JC-1 red fluorescence
Details	8 h	16 h	24 h	32 h	40 h	48 h	56 h	64 h	72 h
0.1 µM, coculture fibroblast: C12385	0.8552	0.789	0.694	0.626	0.545	0.507	0.471	0.425	0.403
0.1 µM, coculture fibroblast: H6013	0.788	0.663	0.64	0.634	0.556	0.55	0.515	0.499	0.457
0.1 µM, coculture fibroblast: H6019	0.817	0.709	0.666	0.601	0.554	0.525	0.468	0.421	0.383
0.1 µM, coculture fibroblast: H6076	0.805	0.754	0.717	0.665	0.618	0.604	0.583	0.555	0.566
0.1 µM, coculture fibroblast: H6231	0.804	0.833	0.718	0.5588	0.588	0.544	0.508	0.4701	0.4318
0.1 µM, coculture fibroblast: HADF	0.769	0.677	0.644	0.671	0.588	0.574	0.537	0.51	0.494
0.1 µM, coculture fibroblast: HCFa	0.764	0.632	0.597	0.578	0.481	0.455	0.408	0.373	0.356
0.1 µM, coculture fibroblast: HCPF	0.803	0.806	0.7269	0.6298	0.632	0.6	0.56	0.52	0.5
0.1 µM, coculture fibroblast: HHSteC	0.8096	0.6866	0.6393	0.605	0.519	0.4934	0.4483	0.415	0.366
0.1 µM, coculture fibroblast: HMF	0.7908	0.851	0.754	0.624	0.643	0.595	0.544	0.493	0.451
0.1 µM, coculture fibroblast: HPFa	0.92	0.829	0.774	0.696	0.616	0.576	0.524	0.472	0.434
0.1 µM, coculture fibroblast: HUF	0.8836	0.752	0.697	0.618	0.567	0.532	0.488	0.446	0.416
0.1 µM, coculture fibroblast: Hs5	0.858	0.893	0.81691	0.7552	0.689	0.639	0.609	0.571	0.565
0.1 µM, coculture fibroblast: Hs27A	0.72	0.646	0.606	0.617	0.504	0.495	0.439	0.402	0.334
0.1 µM, coculture fibroblast: Hs343T	0.816	0.812	0.745	0.685	0.651	0.624	0.579	0.558	0.54
0.1 µM, coculture fibroblast: WS1	0.808	0.687	0.633	0.564	0.507	0.471	0.4231	0.387	0.364
1 µM, coculture fibroblast: C12385	0.844	0.747	0.734	0.677	0.611	0.569	0.529	0.487	0.467
1 µM, coculture fibroblast: H6013	0.758	0.736	0.72	0.724	0.681	0.676	0.648	0.645	0.597
1 µM, coculture fibroblast: H6019	0.786	0.686	0.657	0.594	0.557	0.54	0.496	0.461	0.429
1 µM, coculture fibroblast: H6076	0.807	0.737	0.712	0.688	0.631	0.616	0.598	0.574	0.587
1 µM, coculture fibroblast: H6231	0.812	0.7912	0.696	0.598	0.581	0.549	0.508	0.472	0.451
1 µM, coculture fibroblast: HADF	0.756	0.671	0.64	0.642	0.569	0.552	0.518	0.493	0.452
1 µM, coculture fibroblast: HCFa	0.764	0.697	0.653	0.628	0.553	0.53	0.488	0.454	0.408
1 µM, coculture fibroblast: HCPF	0.814	0.788	0.741	0.652	0.658	0.618	0.582	0.551	0.535
1 µM, coculture fibroblast: HHSteC	0.858	0.765	0.719	0.694	0.615	0.587	0.532	0.502	0.443
1 µM, coculture fibroblast: HMF	0.7844	0.792	0.718	0.615	0.617	0.576	0.523	0.487	0.464
1 µM, coculture fibroblast: HPFa	0.9163	0.811	0.7556	0.6704	0.598	0.556	0.493	0.452	0.41
1 µM, coculture fibroblast: HUF	0.8912	0.807	0.763	0.692	0.649	0.625	0.578	0.539	0.507
1 µM, coculture fibroblast: Hs5	0.8498	0.877	0.822	0.7544	0.711	0.679	0.649	0.628	0.608
1 µM, coculture fibroblast: Hs27A	0.727	0.634	0.605	0.612	0.51	0.516	0.49	0.48	0.433
1 µM, coculture fibroblast: Hs343T	0.79	0.7686	0.694	0.608	0.576	0.53	0.482	0.455	0.425
1 µM, coculture fibroblast: WS1	0.814	0.7096	0.674	0.601	0.559	0.522	0.473	0.442	0.415
